Experimental data from PubChem BioAssay AID2685 (National Center for Advancing Translational Sciences (NCATS), 2010).
The other results are listed elsewhere or left out. The main result of the screen is listed elsewhere. These columns were measured beside it and carry no call. The list favours compounds with an active or inconclusive main result. Words in brackets tell the shape of the fitted curve; partial curves, single points and poor fits give uncertain potencies.

Experiment: qHTS Assay for Lipid Storage Modulators in Drosophila S3 Cells;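 on cell number change: cells counted by Cell Tracker Red CMTPX staining in the red channel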
Details: BODIPY lipid droplet fluorescence, 18-24 h; for cell number change: measured here: cell count max response, cells fed with added oleic acid
Procedure, shortened: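 Drosophila S3 cells loaded with oleic acid (400 uM, as added) and compounds at several concentrations; lipid droplets imaged by 488-nm laser-scanning cytometry, 500–530 nm intensity and object ratio to cell channel. Percent activity normalized to 20 uM Triacsin C.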

[1] = measured here: cell number channel AC50, cells fed with added oleic acid
[2] = measured here: lipid fluorescence (Fed channel) AC50, cells fed with added oleic acid

| SMILES | cell number change [%] | AC50 [1] | AC50 [2] |
| --- | --- | --- | --- |
| CCn1c(/C=C/c2cc(Br)ccc2O)nc2ccccc2c1=O | -35.7 | 5.17 µM [falling, partial curve] | 29.1 µM [falling, single point] |
| CCOc1ccc(-c2cc(C(=O)NCCCN3CCOCC3)c3ccccc3n2)cc1 | 6.93 | – | 29.1 µM [rising, single point] |
| Cn1c(N)c(C(=O)COC(=O)CCc2ccccc2)c(=O)n(C)c1=O | – | – | 6.51 µM [falling, single point] |
| O=C(COc1ccc(-n2cnnn2)cc1)Nc1cccc(Cl)c1Cl | -10.3 | – | – |
| COc1ccc2nc(SCC(=O)NN)cc(C)c2c1 | 36.1 | – | – |
| Cn1cnnc1SCc1ccc(C(=O)N=Nc2c(O)n(Cc3ccc(Cl)cc3)c3ccccc23)cc1 | -47.3 | 29.1 µM [falling, single point] | 2.59 µM [rising, partial curve] |
| COc1cc2[nH]c(=O)c(C(=O)NCc3ccccc3Cl)c(O)c2cc1OC | – | – | 1.03 µM [falling, full curve, poor fit] |
| O=C(NC1CC1)C1CCN(c2ncnc3c2sc2cccc(F)c23)CC1 | 110 | 0.651 µM [rising, full curve] | 1.16 µM [rising, partial curve] |
| O=C1CCCN1CCC1CCN(C(=S)Nc2ccc(F)cc2)CC1 | -69.7 | 23.1 µM [falling, single point] | 23.1 µM [falling, single point] |
| Cc1cc(C)nc(Nc2n[nH]c(-c3ccccc3N)n2)n1 | -12.4 | 0.00517 µM [falling, full curve, poor fit] | 0.291 µM [falling, full curve, poor fit] |
| CC(=O)c1ccc(NS(=O)(=O)c2ccc3ccccc3c2)cc1 | 10 | – | 8.2 µM [falling, single point] |
| CC(C)(C)c1nc(N2CCN(C(=O)c3ccco3)CC2)c2nnn(Cc3ccccc3)c2n1 | 14 | – | 29.1 µM [falling, single point] |
| CN(C)C(=O)c1cccn(Cc2ccc(C(F)(F)F)cc2)c1=O | -7.37 | – | 3.66 µM [rising, single point] |
| COC(=O)c1sc(NC(=O)C2CCCO2)c(C(=O)OC)c1C (stereo unspecified) | -14.3 | – | 4.11 µM [falling, full curve, poor fit] |
| CCOC(=O)C1CCN(C(=O)c2ccc(OC)cc2OC)CC1 | – | – | 16.4 µM [rising, partial curve] |
| CC(=O)Nc1cc(C(=O)N2CCc3ccccc3C2)ccc1Sc1ccc(F)cc1 | 19.5 | – | 7.31 µM [falling, single point] |
| O=C(Cn1cnc2c(cnn2-c2ccccc2)c1=O)Nc1cc(S(=O)(=O)N2CCOCC2)ccc1Cl | – | – | 20.6 µM [falling, partial curve] |
| O=C(NCCCN1CCN(c2ccccc2F)CC1)Nc1ccc(F)cc1 | -3.76 | – | – |
| COc1ccc2c(CC(=O)NC(Cc3ccc(Cl)cc3)C(=O)O)cc(=O)oc2c1C (stereo unspecified) | 207 | 29.1 µM [rising, single point] | – |

Fetched by compound from the list above, two records:

| SMILES | cell number change [%] | AC50 [1] | AC50 [2] |
| --- | --- | --- | --- |
| COc1cc2[nH]c(=O)c(C(=O)NCc3ccccc3Cl)c(O)c2cc1OC | – | – | 1.03 µM [falling, full curve, poor fit] |
| Cn1c(N)c(C(=O)COC(=O)CCc2ccccc2)c(=O)n(C)c1=O | – | – | 6.51 µM [falling, single point] |

Further entries follow.

| SMILES | cell number change [%] | AC50 [1] | AC50 [2] |
| --- | --- | --- | --- |
| Cc1ccccc1NC(=O)c1ccc(CN2CCC(Cc3ccccc3)CC2)cc1 | – | – | 2.06 µM [rising, partial curve] |
| CC(C)Cn1c(N)c(C(=O)COC(=O)C2CC(=O)N(Cc3ccccc3Cl)C2)c(=O)n(C)c1=O (stereo unspecified) | -51.3 | 32.6 µM [falling, single point] | – |
| Cc1ccc(NS(C)(=O)=O)c(C(=O)c2ccccc2)c1 | 68.8 | 3.66 µM [rising, partial curve] | 9.2 µM [rising, partial curve] |
| O=C(Cc1ccc([N+](=O)[O-])cc1)NCc1ccc2c(c1)OCO2 | 3.74 | 0.103 µM [rising, full curve] | 29.1 µM [rising, single point] |
| CCCC(=O)Nc1ccc(C)c(O)c1 | -0.133 | – | 3.26 µM [falling, single point] |
| COc1ccc(Nc2nc(N(C)c3ccccc3)nc(N)c2[N+](=O)[O-])cc1 | -10.4 | – | – |
| Cc1ccccc1NC(=O)NC1(C(=O)N2CCC(O)CC2)CCCCC1 | 33.3 | 10.3 µM [rising, partial curve] | – |
| COc1ccc(OC)c(/C=C2\SC(=S)N(Cc3cccnc3)C2=O)c1 | 15.4 | – | – |
| Cc1ccc(Nc2c3c(nc4ncnn24)CCC3)cc1 | – | 6.51 µM [rising, single point] | 6.51 µM [rising, single point] |
| Cn1c(N)c(C(=O)COC(=O)c2ccc(Cl)c(S(=O)(=O)N3CCCCC3)c2)c(=O)n(C)c1=O | -13.2 | – | 0.58 µM [falling, single point] |
| CCOc1ccc(CCNC(=O)COC(=O)c2nc3nc(C)cc(C)n3n2)cc1OCC | -5.46 | 6.51 µM [rising, single point] | 0.326 µM [falling, single point] |
| O=C(Cn1ncnn1)OCc1ccccc1Cl | -37.4 | 8.2 µM [falling, partial curve, poor fit] | 11.6 µM [falling, single point] |
| O=C(CC1Sc2ccccc2NC1=O)NNC(=O)Nc1ccc(Cl)cc1 (stereo unspecified) | – | – | 0.651 µM [rising, partial curve, poor fit] |
| Cc1cc(N=Cc2c(O)ccc3ccccc23)no1 | -1.02 | – | 6.51 µM [rising, partial curve] |
| CCOc1ccc(NC(=O)c2ccc3c(SCC(=O)O)c4c(nc3c2)CCCC4)cc1 | 54.9 | 29.1 µM [rising, single point] | 0.731 µM [rising, full curve, poor fit] |
| O=S(=O)(Cc1cc(Sc2ccccc2)nc(-c2ccccc2)n1)c1ccccc1 | – | – | 2.06 µM [rising, partial curve] |
| CSc1ccc(/C=N/n2c(C)nc3ccccc3c2=O)cc1 | -11.1 | – | – |
| COCCNC(=O)C(c1cccs1)N(C(=O)Cn1nnc2ccccc21)c1cccc(C)c1 (stereo unspecified) | -20.2 | – | 0.731 µM [rising, single point] |
